Record: PubChem BioAssay AID1259405 (NCATS, 2018)

Screen: 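Knock-downs that lift recombinant protein yield in hamster ovary cells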 (primary screen)
System: Chinese hamster CHO-K1 ovary cells with stable secreted eGFP expression
Knock-down reagent: single siRNA against mouse genes, 0.8 pmol siRNA per well (2 µl of 400 nM stock)
Time to read-out: 3 days
Measurement: 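Percent of the per-plate non-targeting control median for intracellular GFP per well by laser scanning cytometry and for cell viability by ATP luminescence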
Scale: GFP, % of control: higher = more GFP per well, higher productivity
Rule for the call: 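a knock-down is called active if GFP reaches 120% or more of non-targeting control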
In all, the deposit lists about 50,000 reagents; this is a part drawn at random. About 4,000 of all reagents (8%) count as active. 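Mouse siRNA library applied to hamster cells; one well for each siRNA.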 The numbers tell different reagents against one gene apart. Not all columns of the deposit are shown.

GFP, % of control, by target gene and reagent
Apoa2: #1 90.6 inactive; #2 96.5 inactive; #3 94.8 inactive
Ubc: #1 58.5 inactive; #2 73.3 inactive; #3 84.6 inactive
Tm9sf1: #1 46.8 inactive; #2 137 active; #3 77.2 inactive
Rorb: #1 107 inactive; #2 78.6 inactive; #3 82.5 inactive
Igsf21: #1 58.6 inactive; #2 71.9 inactive; #3 81.2 inactive
Aknaos: #1 169 active; #2 99.3 inactive; #3 153 active
Defa4: #1 73.1 inactive; #2 57.4 inactive; #3 127 active
Casr: #1 61.5 inactive; #2 81.9 inactive; #3 46.4 inactive
Or5ac25: #1 52.7 inactive; #2 57.3 inactive; #3 43.3 inactive
Lrrc3: #1 122 active; #2 79.8 inactive; #3 68.7 inactive
Abcd2: #1 71.4 inactive; #2 88 inactive; #3 69.5 inactive
Cfl2: #1 85.4 inactive; #2 90.3 inactive

6 of these entries, set out differently:
Target gene,siRNA no.,"GFP, % of control",Outcome
Apoa2,2,96.5,inactive
Apoa2,3,94.8,inactive
Ubc,1,58.5,inactive
Ubc,2,73.3,inactive
Ubc,3,84.6,inactive
Tm9sf1,1,46.8,inactive
